Taken from: PubChem BioAssay AID686943 (Drosophila RNAi Screening Center, 2013)

Assay: 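Fly genes whose loss alters ERK activation after insulin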 (primary screen)
Cell system: Drosophila S2R+ haemocyte-like cells expressing YFP-tagged ERK (Rolled)
Reagent: long dsRNA against Drosophila genes
Challenge: insulin stimulation versus unstimulated cells; dose and duration not given
Measured: 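Antibody staining for doubly phosphorylated ERK divided by ERK-YFP signal, as plate z-scores, in insulin-treated and untreated cells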
Direction: replicate 1, z-score of dpERK with insulin: higher = more active ERK per ERK-YFP after insulin
In all, the deposit lists about 23,000 reagents; below is an unselected part of those that have a named target and a result. 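Extra replicates exist only for a retested subset of genes; insulin dose and duration not given; both raised and lowered dpERK matter.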 A plus sign joins genes that one reagent is predicted to hit. Not all columns of the deposit are shown. Not given: the amount of reagent, the time to read-out.

ftz (GeneID 40834) [DRSC12626] | replicate 1, z-score of dpERK with insulin: -0.84
CG9674 (GeneID 39878) [DRSC11088] | replicate 1, z-score of dpERK with insulin: 0.34
CG9674 (GeneID 39878) [DRSC11089] | replicate 1, z-score of dpERK with insulin: 0.53
CG15576 (GeneID 31369) [DRSC18064] | replicate 1, z-score of dpERK with insulin: 0.36
CG5149 (GeneID 34013) [DRSC02819] | replicate 1, z-score of dpERK with insulin: 0.64
CG30054 (GeneID 246420) [DRSC05354] | replicate 1, z-score of dpERK with insulin: -0.07
CG14572 (GeneID 40422) [DRSC11733] | replicate 1, z-score of dpERK with insulin: 0.48
fand (GeneID 36514) [DRSC06967] | replicate 1, z-score of dpERK with insulin: 0.7
CG3546 (GeneID 31389) [DRSC18308] | replicate 1, z-score of dpERK with insulin: -0.22
btd (GeneID 31912) [DRSC18747] | replicate 1, z-score of dpERK with insulin: -0.37
CG13539 (GeneID 37680) [DRSC04181] | replicate 1, z-score of dpERK with insulin: 0.62
CG1598 (GeneID 35690) [DRSC06598] | replicate 1, z-score of dpERK with insulin: -0.9
CG13461 (GeneID 39635) [DRSC10008] | replicate 1, z-score of dpERK with insulin: -0.77
CG9265 (GeneID 35369) [DRSC03178] | replicate 1, z-score of dpERK with insulin: -0.21
CG9265 (GeneID 35369) [DRSC03179] | replicate 1, z-score of dpERK with insulin: -0.12
IRSp53 (GeneID 39258) [DRSC10891] | replicate 1, z-score of dpERK with insulin: -0.83
CG13868 (GeneID 37302) [DRSC06427] | replicate 1, z-score of dpERK with insulin: 0.13
T3dh + pgc [DRSC04659] | replicate 1, z-score of dpERK with insulin: 0.16
CG31274 + MESK4 [DRSC13202] | replicate 1, z-score of dpERK with insulin: -0.05
HDAC3 (GeneID 44446) [DRSC12352] | replicate 1, z-score of dpERK with insulin: -0.4
CG30268 (GeneID 37610) [DRSC21983] | replicate 1, z-score of dpERK with insulin: -0.44
Ip259 (GeneID 34419) [DRSC03352] | replicate 1, z-score of dpERK with insulin: -1.12
Adss (GeneID 42466) [DRSC14162] | replicate 1, z-score of dpERK with insulin: -0.07
CG12617 (GeneID 50470) [DRSC02176] | replicate 1, z-score of dpERK with insulin: 0.71
CG11961 (GeneID 37221) [DRSC06099] | replicate 1, z-score of dpERK with insulin: 0.44
mRpL1 (GeneID 40980) [DRSC16251] | replicate 1, z-score of dpERK with insulin: 0.11
Pal1 + Pdrg1 [DRSC06587] | replicate 1, z-score of dpERK with insulin: -0.68
Jhbp14 (GeneID 34728) [DRSC01988] | replicate 1, z-score of dpERK with insulin: 0.31
Boh1 (GeneID 338395) [DRSC14487] | replicate 1, z-score of dpERK with insulin: 0.18
CG34006 (retired record) (GeneID 3885652) [DRSC13817] | replicate 1, z-score of dpERK with insulin: -0.68
CG43059 (GeneID 12798369) [DRSC08916] | replicate 1, z-score of dpERK with insulin: 0.33

Targets above whose gene name begins with F or f (2):
ftz (GeneID 40834) [DRSC12626] | replicate 1, z-score of dpERK with insulin: -0.84
fand (GeneID 36514) [DRSC06967] | replicate 1, z-score of dpERK with insulin: 0.7
